According to patent US9926581B2, “Fagopyritol synthase genes and uses thereof” (Cornell Research Foundation, Inc., priority 2002, dated 2018):

Legend:
soybean explants = assay: Soybean explant feeding 3 days with 50 mM cyclitol in 1% sucrose, slow drying time course, soluble carbohydrates in axis, cotyledon, seed coat and leaf
immature soybean embryos = assay: Embryo feeding experiments: cyclitols fed to immature soybean embryos, precocious maturation by slow drying, soluble carbohydrates in axis and cotyledons; assay type: in vivo, Glycine max (L.) Merrill
[1] = 3 days transport of sucrose (1%) and D-pinitol (50 mM), after 4 days slow drying, Rep 2
[2] = 3 days transport of sucrose (1%) and D-pinitol (50 mM), after 14 days slow drying, Rep 1
[3] = 3 days transport of sucrose (1%) and D-pinitol (50 mM), after 14 days slow drying, Rep 2
[4] = 3 days transport of sucrose (1%) and D-pinitol (50 mM), before slow drying, Rep 1
[5] = 3 days transport of sucrose (1%) and D-pinitol (50 mM), before slow drying, Rep 2
[6] = 3 days transport of sucrose (1%) and myo-inositol (50 mM), after 2 days slow drying, Rep 1
[7] = 3 days transport of sucrose (1%) and myo-inositol (50 mM), after 2 days slow drying, Rep 2
[8] = 3 days transport of sucrose (1%) and myo-inositol (50 mM), after 4 days slow drying, Rep 1
[9] = 3 days transport of sucrose (1%) and myo-inositol (50 mM), after 4 days slow drying, Rep 2
[10] = 3 days transport of sucrose (1%) and myo-inositol (50 mM), after 14 days slow drying, Rep 1
[11] = 3 days transport of sucrose (1%) and myo-inositol (50 mM), after 14 days slow drying, Rep 2
[12] = 3 days transport of sucrose (1%) and myo-inositol (50 mM), before slow drying, Rep 1
[13] = 3 days transport of sucrose (1%) and myo-inositol (50 mM), before slow drying, Rep 2
[14] = 3 days transport of sucrose (1%) without cyclitols, after 2 days slow drying, Rep 1
[15] = 3 days transport of sucrose (1%) without cyclitols, after 2 days slow drying, Rep 2
[16] = 3 days transport of sucrose (1%) without cyclitols, after 4 days slow drying, Rep 1
[17] = 3 days transport of sucrose (1%) without cyclitols, after 4 days slow drying, Rep 2
[18] = 3 days transport of sucrose (1%) without cyclitols, after 14 days slow drying, Rep 1
[19] = 3 days transport of sucrose (1%) without cyclitols, after 14 days slow drying, Rep 2
[20] = 3 days transport of sucrose (1%) without cyclitols, before slow drying, Rep 1
[21] = 3 days transport of sucrose (1%) without cyclitols, before slow drying, Rep 2
[22] = 250 mg fresh weight embryos, before feeding
[23] = after incubation with 30 mM myo-inositol, 100 mM D-chiro-inositol or 100 mM D-pinitol for 24 hours at 22° C.

CO[C@H]1[C@H](O)[C@@H](O)[C@@H](O)[C@H](O)[C@@H]1O [D-Pinitol, 1D-3-O-methyl-chiro-inositol, reference compound]
Accumulation of soluble carbohydrates in soybean cotyledon (soybean explants; [1]): 438.53 μg/cotyledon | Accumulation of soluble carbohydrates in soybean seed coat (soybean explants; [1]): 90.19 μg/seed coat | Accumulation of soluble carbohydrates in soybean axis (soybean explants; [2]): 26.07 μg/axis | Accumulation of soluble carbohydrates in soybean cotyledon (soybean explants; [2]): 160.89 μg/cotyledon | Accumulation of soluble carbohydrates in soybean seed coat (soybean explants; [2]): 50.78 μg/seed coat | Accumulation of soluble carbohydrates in soybean axis (soybean explants; [3]): 56.18 μg/axis | Accumulation of soluble carbohydrates in soybean cotyledon (soybean explants; [3]): 303.14 μg/cotyledon | Accumulation of soluble carbohydrates in soybean seed coat (soybean explants; [3]): 96.60 μg/seed coat | Accumulation of soluble carbohydrates in soybean axis (soybean explants; [4]): 16.89 μg/axis | Accumulation of soluble carbohydrates in soybean cotyledon (soybean explants; [4]): 351.23 μg/cotyledon | Accumulation of soluble carbohydrates in soybean axis (soybean explants; [5]): 18.34 μg/axis | Accumulation of soluble carbohydrates in soybean cotyledon (soybean explants; [5]): 497.66 μg/cotyledon | Accumulation of soluble carbohydrates in soybean axis (soybean explants; [6]): 5.05 μg/axis | Accumulation of soluble carbohydrates in soybean cotyledons (soybean explants; [6]): 121.52 μg/cotyledon | Accumulation of soluble carbohydrates in soybean seed coats (soybean explants; [6]): 11.24 μg/seed coat | Accumulation of soluble carbohydrates in soybean axis (soybean explants; [7]): 5.72 μg/axis | Accumulation of soluble carbohydrates in soybean cotyledons (soybean explants; [7]): 132.23 μg/cotyledon | Accumulation of soluble carbohydrates in soybean seed coats (soybean explants; [7]): 9.35 μg/seed coat | Accumulation of soluble carbohydrates in soybean axis (soybean explants; [8]): 2.74 μg/axis | Accumulation of soluble carbohydrates in soybean cotyledons (soybean explants; [8]): 101.97 μg/cotyledon | Accumulation of soluble carbohydrates in soybean axis (soybean explants; [9]): 2.86 μg/axis | Accumulation of soluble carbohydrates in soybean cotyledons (soybean explants; [9]): 128.68 μg/cotyledon | Accumulation of soluble carbohydrates in soybean seed coats (soybean explants; [9]): 6.81 μg/seed coat | Accumulation of soluble carbohydrates in soybean axis (soybean explants; [10]): 6.70 μg/axis | Accumulation of soluble carbohydrates in soybean cotyledons (soybean explants; [10]): 61.67 μg/cotyledon | Accumulation of soluble carbohydrates in soybean seed coats (soybean explants; [10]): 12.13 μg/seed coat | Accumulation of soluble carbohydrates in soybean axis (soybean explants; [11]): 5.72 μg/axis | Accumulation of soluble carbohydrates in soybean cotyledons (soybean explants; [11]): 95.93 μg/cotyledon | Accumulation of soluble carbohydrates in soybean seed coats (soybean explants; [11]): 15.41 μg/seed coat | Accumulation of soluble carbohydrates in soybean axis (soybean explants; [12]): 5.89 μg/axis | Accumulation of soluble carbohydrates in soybean cotyledons (soybean explants; [12]): 99.88 μg/cotyledon | Accumulation of soluble carbohydrates in soybean axis (soybean explants; [13]): 5.97 μg/axis | Accumulation of soluble carbohydrates in soybean cotyledons (soybean explants; [13]): 127.21 μg/cotyledon | Accumulation of soluble carbohydrates in soybean axis (soybean explants; [14]): 7.28 μg/axis | Accumulation of soluble carbohydrates in soybean cotyledon (soybean explants; [14]): 162.30 μg/cotyledon | Accumulation of soluble carbohydrates in soybean seed coats (soybean explants; [14]): 16.22 μg/seed coat | Accumulation of soluble carbohydrates in soybean axis (soybean explants; [15]): 10.54 μg/axis | Accumulation of soluble carbohydrates in soybean cotyledon (soybean explants; [15]): 222.80 μg/cotyledon | Accumulation of soluble carbohydrates in soybean seed coats (soybean explants; [15]): 12.15 μg/seed coat | Accumulation of soluble carbohydrates in soybean axis (soybean explants; [16]): 4.24 μg/axis | Accumulation of soluble carbohydrates in soybean cotyledon (soybean explants; [16]): 187.65 μg/cotyledon | Accumulation of soluble carbohydrates in soybean seed coats (soybean explants; [16]): 20.16 μg/seed coat | Accumulation of soluble carbohydrates in soybean axis (soybean explants; [17]): 4.89 μg/axis | Accumulation of soluble carbohydrates in soybean cotyledon (soybean explants; [17]): 166.14 μg/cotyledon | Accumulation of soluble carbohydrates in soybean seed coats (soybean explants; [17]): 19.36 μg/seed coat | Accumulation of soluble carbohydrates in soybean axis (soybean explants; [18]): 8.64 μg/axis | Accumulation of soluble carbohydrates in soybean cotyledon (soybean explants; [18]): 98.90 μg/cotyledon | Accumulation of soluble carbohydrates in soybean seed coats (soybean explants; [18]): 25.66 μg/seed coat | Accumulation of soluble carbohydrates in soybean axis (soybean explants; [19]): 4.32 μg/axis | Accumulation of soluble carbohydrates in soybean cotyledon (soybean explants; [19]): 153.50 μg/cotyledon | Accumulation of soluble carbohydrates in soybean seed coats (soybean explants; [19]): 16.34 μg/seed coat | Accumulation of soluble carbohydrates in soybean axis (soybean explants; [20]): 10.61 μg/axis | Accumulation of soluble carbohydrates in soybean cotyledon (soybean explants; [20]): 199.64 μg/cotyledon | Accumulation of soluble carbohydrates in soybean axis (soybean explants; [21]): 11.12 μg/axis | Accumulation of soluble carbohydrates in soybean cotyledon (soybean explants; [21]): 176.34 μg/cotyledon | increase of the free cyclitol fed to explants (soybean explants; cotyledon tissues of dry seeds (14 days slow drying)): 2 fold | increase of the free cyclitol fed to explants (soybean explants; leaf tissues at 24 hours after the start of feeding): 5 fold | change after feeding myo-inositol (soybean explants; seed coat of dry seeds (14 days slow drying)): no increase | initial concentration of cyclitols in axis tissues (immature soybean embryos; [22]): 6.0 mg/g dry weight | initial concentration of cyclitols in cotyledon tissues (immature soybean embryos; [22]): 4.0 mg/g dry weight | increase in concentration of the fed cyclitol in axis (immature soybean embryos; [23]): 6 fold | increase in concentration of the fed cyclitol in cotyledon tissues (immature soybean embryos; [23]): 11 fold | increase in concentration after feeding D-pinitol (immature soybean embryos; axis and cotyledon tissues, concentration series, 14 days precocious maturation): 8 fold | increase in concentration after feeding D-chiro-inositol (immature soybean embryos; axis and cotyledons, concentration series, 14 days precocious maturation): did not increase
